Data from publication PMC3832391.
Results are given in words; binding and its absence hold for the method and conditions named. In cells and extracts the contact can be indirect. Some entries that bind do so weakly or less than the wild type.

T1: human Rh-associated glycoprotein (hRhAG) (human) (UniProt Q02094)
T1 sequence: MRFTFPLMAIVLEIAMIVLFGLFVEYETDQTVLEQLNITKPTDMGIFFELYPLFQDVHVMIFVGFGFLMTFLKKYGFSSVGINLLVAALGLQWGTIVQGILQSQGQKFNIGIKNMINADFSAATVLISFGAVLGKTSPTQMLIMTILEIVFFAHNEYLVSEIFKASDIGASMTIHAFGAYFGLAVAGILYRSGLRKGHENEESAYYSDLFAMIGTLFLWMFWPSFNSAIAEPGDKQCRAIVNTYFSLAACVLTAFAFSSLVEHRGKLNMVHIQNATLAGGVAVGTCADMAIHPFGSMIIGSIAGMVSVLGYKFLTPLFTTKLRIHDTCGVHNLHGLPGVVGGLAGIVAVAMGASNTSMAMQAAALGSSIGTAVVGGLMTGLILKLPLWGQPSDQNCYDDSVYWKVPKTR


Target: T1, human Rh-associated glycoprotein (hRhAG) (human)
Test: co-IP; anti-hRhAG LA18.18 on Protein G Sepharose beads; erythrocyte ghosts of TG_hRHAG_68.08 and WT mice solubilised in 10 mM Tris/HCl pH 7.4, 150 mM NaCl, 0.5 mM CaCl2, 0.5 mM MgCl2, 1% Triton X100; pre-cleared, incubated overnight at 4°C, washed 3 times; immunoblot with MPC8 (anti-Rh), anti-mRhag or LA18.18

| binding | Binder |
| --- | --- |
| no binding | mouse Rhag glycoprotein (mRhag) (protein, UniProt Q9QUT0 1-438) MRFKFPLMAISLEVAMIVLFGLFVEYETPQNASQKNASHQNASQQGNTSSSAKKDQFFQLYPLFQDVHVMIFVGFGFLMTFLKKYGFSGVGFNLFLAALGLQWGTIMQGLLHSHGKEFHFGIYNMINADFSTATVLISFGAVLGKTSPIQMLIMTILEIAVFAGNEYLVTELFEASDTGASMTIHAFGAYFGLAVAGVLYRPGLRCEHPNDESVYHSDLFAMIGTLFLWIFWPSFNSAIADPGDHQYRAIVNTYMSLAACVITAYALSSLVERRGRLDMVHIQNATLAGGVAVGTCADMEIPLYAAMTIGSIAGIISVLGYKFFSPLLANKLMIHDTCGVHNLHGLPGVFGGLASIVAISWGMSTASMAMQAAALGSSIGSAIVGGLLTGLILKLPIWNQPPDEYCYDDSVSWKVPKFRELDNRFFQHANHNHVEHEV |
| binds | mouse Rh protein (mRh) (protein, UniProt Q8CF94 1-418) MGSKYPRSLRCCLPLWALELQTAFSLLFCFFIPHDTAQVDHRFMASYQVLRNLTLMAALGFGFLSSSFRRHSWSSVAFNLFMLALGVQGTILLDHFLGQVLQWNKINNLSSIQIATMSTLPVLISAGAVLGKVNLVQLTVMVLMEAMAFGAIRFADEKVFKMTEHIIMMHGHVFGAYFGLTVAWWLSRSLPRRVGENAQTEKVQMATSSSLFAMLGTLFLWIFWPAINSALLEGTKKRNAVFNTYYALAVSAVTATSMSALSHPQGKINMVHIHNAVLAGGVAVGAPGCLISSPWISMVLGLIAGLISIWGAKCPRACLNHMLQNSSGIHYTFGLPGLLGALTYYCLQIVTEPKSSDLWIITQTVTHIGALSFAVAMGMVTGLLTGCLLSVRVWRAPHAAKYFDDQTFWEFPHLAVGF |
